PubChem BioAssay AID1347075 (National Center for Advancing Translational Sciences (NCATS), 2019)
Where “and” joins values, the source holds several entries; their conditions need not be identical. Equal entries are not always repeated. The campaign covered roughly 400,000 compounds. About 5,500 (1.4%) were called active. The shares of active, inactive and inconclusive entries below differ from those in the screen. Calls follow the shape of the dose curve; as a rule, active = well fitted cell-killing curve with a large enough effect; inconclusive = small, poorly fitted or top-dose-only effect, or effect the other way; inactive = flat fitted curve, though single readings scatter. Potencies of inconclusive entries are doubtful fits and often do not repeat.

Experiment: qHTS assay for MDR1-selective chemotherapeutics: Primary screen using the parental adenocarcinoma cell KB-3-1; also: nearly all actives have a fitted effect of over 60% in size
Conditions: KB-3-1 viability, CellTiter-Glo ATP luminescence, 72 h; activity change, negative = cytotoxic: at 46.1 µM (top of the series)
Outline: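 Cytotoxicity in the drug-sensitive parental line KB-3-1 was scored as loss of CellTiter-Glo luminescence following 72 h incubation with compound. Values come from curve fitting of normalized concentration-response data.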
% is scaled to controls: 0 for no effect and ±100 for the full control effect; potency is read from the fitted curve at half-maximal effect.

SMILES	Potency	activity change, negative = cytotoxic
Cc1ccc2[nH]c3c(c2c1)CN(C(=O)CN1CCN(c2cccc(C)c2C)CC1)CC3	inconclusive: 16.4 µM [cytotoxic, single point]	
CCN(CC)S(=O)(=O)c1ccc(N(C)Cc2cccc(OC)c2OC)nc1	inconclusive: 18.4 µM [cytotoxic, single point]	
N#Cc1ccc(NC2c3ccccc3CC2O)cc1 (stereo unspecified)	inconclusive: 18.4 µM [cytotoxic, single point]	
O=C(NCc1ccccc1)C1Cc2c(-c3ccc(Cl)cc3)ccnc2O1 (stereo unspecified)	active: 5.8 µM	
Cc1[nH]nc2c1C(c1ccccc1)C1=C(CC(C)(C)CC1=O)N2 (stereo unspecified)	inconclusive: 8.2 µM [rising, partial curve]	
Cc1ccc(-n2c(O)c(/C=C3/C(c4ccccc4)=Nc4ccccc43)c(=O)[nH]c2=O)cc1	active: 3.66 µM	
COc1ccccc1-c1cc2nc(-c3ccccc3)cc(N3CCN(C(=O)c4ccco4)CC3)n2n1	active: 16.4 µM	
COc1cc2c(cc1Cl)C(=O)C(F)(c1ccccc1)C(=O)N2 (stereo unspecified)		inactive: 5.93%
CN(CC(=O)Nc1ccccc1Cl)C(=O)c1cccc(S(=O)(=O)N2CCN(c3ccc(F)cc3)CC2)c1	inconclusive: 18.4 µM [cytotoxic, partial curve, poor fit]	
Nc1c(N(CCC2=CCCCC2)C(=O)COc2ccc(F)cc2)c(=O)[nH]c(=O)n1Cc1ccccc1	inconclusive: 18.4 µM [cytotoxic, single point]	
Cc1cc(C(=O)N(C)CC(=O)Nc2ccc(Cl)c(C(F)(F)F)c2)no1		inactive: 0.136%
CCc1ccc2c(c1)C(=O)c1ccccc1C2=O		inactive: 0.464%
COc1ccc(-c2ccc(NS(=O)(=O)c3cccc(Cl)c3)cc2)nn1		inactive: 6.4%
O=C(Nc1ccc(N2CCOCC2)c(Cl)c1)c1cc2ccccc2o1	inconclusive: 29.1 µM [cytotoxic, single point]	
COc1ccc(S[C@@H](CCN2CC[C@H](NC(=O)OCc3ccccc3)CCC2=O)c2ccccc2)cc1	inconclusive: 29.1 µM [cytotoxic, single point] and active: 13 µM	
Cc1ccc(CNC(=O)c2ccc(CS(=O)(=O)c3ccccc3)o2)cc1	inconclusive: 10.3 µM [cytotoxic, partial curve, poor fit]	
CCOc1cccc2sc(=NC(=O)CCS(=O)(=O)c3ccccc3)n(CC)c12	inconclusive: 29.1 µM [cytotoxic, single point]	
c1ccc(N2CCN(c3ncnc4sc5c(c34)CCC5)CC2)cc1	inconclusive: 11.6 µM [cytotoxic, partial curve]	
O=C(N/N=C/c1cc(Br)c(Br)o1)C(O)c1ccccc1 (stereo unspecified)	inconclusive: 2.31 µM [rising, partial curve, poor fit]	
COc1cccc(Cn2c(=O)n(-c3ccc(C)c(F)c3)c(=O)c3sc4ccccc4c32)c1		inactive: 1.38%
C=C1C(O)[C@@H]2O[C@]3(CC[C@H](/C=C/C(C)[C@@H]4CC(C)=CC5(O[C@H](C[C@@](C)(O)CO)CCC5O)O4)O3)CC[C@H]2O[C@@H]1C(O)CC(C)[C@H]1OC2(CCCCO2)CCC1C (stereo partly specified)	active: 0.0206 µM	

SMILES	Potency	activity change, negative = cytotoxic
CCCCNc1c(-c2ccc(-c3ccc(OC)cc3)c(OC)c2)nc2ccccn12	inconclusive: 18.4 µM [cytotoxic, single point]	
O=S(=O)(c1ccccc1)N1CCN(S(=O)(=O)c2ccccc2)CC1	inconclusive: 29.1 µM [rising, single point]	
Cc1nc2ccc(NC(=O)c3ccc(S(=O)(=O)N4CCOCC4)cc3)cc2s1		inactive: 0%
Cc1c(C=O)c(C=O)c(C)n1Cc1ccccc1	inconclusive: 18.4 µM [cytotoxic, single point]	
CCOc1ccc(N(CC(=O)NCc2ccccc2C)S(C)(=O)=O)cc1	inconclusive: 0.82 µM [cytotoxic, full curve, poor fit]	
c1ccc(C2=Nc3c(ccc4ccccc34)C(c3ccncc3)=NN2)cc1	inconclusive: 29.1 µM [cytotoxic, single point]	
COc1ccc(-c2[nH]c3ccccc3c2SCCNC(=O)c2ccc(S(=O)(=O)N(C)C)cc2)cc1	inconclusive: 14.6 µM [cytotoxic, single point]	
COc1ccccc1NC(=O)c1cnc(Nc2ccccc2OC)c2ccccc12	active: 18.4 µM	
Cc1ccc(S(=O)(=O)N2CCN(C(=O)COC(=O)/C=C/c3cccc([N+](=O)[O-])c3)CC2)c(C)c1		inactive: -3.89%
CCOc1ccccc1Nc1nnc(SCC(=O)Nc2ccc3[nH]c(=O)[nH]c3c2)s1		inactive: -7.19%
C[C@]12c3[nH]c4cc(-c5ccco5)ccc4c3CCN1C(=O)[C@@H](CC(=O)NCC13CC4CC(CC(C4)C1)C3)C[C@@H]2C(=O)N1CCOCC1	inconclusive: 18.4 µM [cytotoxic, single point]	
O=C(CSc1nnc(CNc2ccc(F)cc2)o1)N1CCN(C(=O)c2ccco2)CC1	inconclusive: 29.1 µM [rising, single point]	
COC(=O)Nc1nc2ccc(Sc3ccccc3)cc2[nH]1	active: 1.46 µM	
Oc1ccccc1N=Nc1ccccc1O	active: 7.31 µM	
CCN1CCN(c2cc3nc(C)n(Cc4ccccc4)c(=O)c3cc2NC(=O)c2ccccc2F)CC1	inconclusive: 29.1 µM [cytotoxic, single point]	
CC1CCCCC1NC(=O)c1c(O)nc2ccccn2c1=O (stereo unspecified)	inconclusive: 9.2 µM [cytotoxic, partial curve]	
COC(CNC(=O)C(=O)Nc1ccc2c(c1)N(S(=O)(=O)c1cccs1)CCC2)OC	inconclusive: 23.1 µM [cytotoxic, single point]	
CCC(C)[C@H]1CNCCN1CCc1cccc2ccccc12 (stereo partly specified)	inconclusive: 29.1 µM [cytotoxic, single point]	
Cc1cc(OC(=O)c2cc(Cl)ccc2Cl)c([N+](=O)[O-])c(=O)[nH]1	inconclusive: 2.59 µM [rising, full curve]	
CN(C(=O)c1ccc(S(=O)(=O)NC2CCCC2)cc1)C1CCCCC1	inconclusive: 25.9 µM [cytotoxic, single point]	
